The values that follow come from US4835252A (The Salk Institute Biotechnology/Industrial Associates, Inc., priority 1987, dated 1989).

This series in a line: general procedure: Boc solid-phase peptide synthesis; HOBT. The settings on record: whole synthesis, scale 0.5 mmol.

“HSDAVFSDSYSRFRRMAVRR -Y-L-S-N-V-L-T-(NH2)”: the crude mass came out at 695 mg.
